# Test results taken from PubChem BioAssay AID1259415 (National Center for Advancing Translational Sciences (NCATS), 2018).
# About 18,000 (4.4%) of roughly 410,000 compounds were called active. Inconclusive results, whose numbers are uncertain, are shown with a selection of clear calls. Rule as the data show it: active = activity change below about -60%; inconclusive = no clear call, values can overlap the other calls; inactive = above about -39%.
# Assay: qHTS Assay for inhibitors of the human cytomegalovirus (HCMV)
# Conditions: HFF cells, HCMV-luciferase reporter, 72 h; at 57.5 µM; stronger effect = lower value
# Summary of the method: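 Two-dose cell screen: HFF monolayers treated with compounds and infected with luciferase-expressing HCMV at 1 PFU/cell, 72 h at 37C, then lysed for luciferase measurement.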
# % is scaled to controls: 0 for no effect and ±100 for the full control effect.
row,Structure (SMILES),"activity change, negative = inhibition"
1,Cc1ccc(CC(SCc2ccccc2)C(=O)O)cc1C (stereo not given),inconclusive: -53.8%
2,C/C(=N\NC(=O)c1c(Br)c(C)nn1C)c1cccc(NC(=O)c2ccccc2C)c1,inconclusive: -41%
3,CCCSC1=C(C#N)C(c2cccs2)C(C(=O)Nc2ccccc2)=C(C)N1 (stereo not given),inconclusive: -45.2%
4,CCN(c1ccccc1)S(=O)(=O)c1cccc(C(=O)N(C)CC(=O)Nc2ccc(F)c(F)c2F)c1,inconclusive: -43%
5,Cc1cc(C(=O)COC(=O)c2ccc(F)cc2F)c(C)n1C1CC1,inconclusive: -42.1%
6,CCCOc1ccc(Cn2cnc3ccccc32)cc1,inconclusive: -55.6%
7,Cc1onc(-c2ccccc2)c1C(=O)Nc1ccc(S(=O)(=O)N2CCCC2)cc1,inactive: 19.8%
8,COc1ccc(S(=O)(=O)N2CCN(CC(=O)Nc3ccc(F)c(F)c3)CC2)cc1,inactive: -2.96%
9,CCOC(=O)c1nn(-c2ccc(F)cc2)c2c1CC/C2=C/c1ccccc1,inconclusive: -43.6%
10,CCc1sc(C(=O)NCCc2ccc(S(N)(=O)=O)cc2)cc1Br,active: -67.6%
11,CCOc1ccc(CCN2C(=S)N([C@@H](CC(C)C)CN3CCCC3CN3C(=S)NC[C@@H]3Cc3ccccc3)C[C@@H]2CC(C)C)cc1 (stereo not given in full),inconclusive: -43.2%
12,COc1ccc(S(=O)(=O)Nc2ccccc2C(N)=O)cc1OC,inconclusive: -50.5%
13,CCc1ccc(OCCNC(=O)c2cccs2)cc1,inactive: 29.4%
14,CC(C)=NN1C(c2nonc2N)=NOC1(C)C,inconclusive: -40.5%
15,CC(C)NC[C@H](O)COc1cccc2[nH]ccc12,active: -80.8%
16,O=C(NCC(c1ccco1)N1CCCC1)c1ccc(S(=O)(=O)Nc2ccccc2F)cc1 (stereo not given),inconclusive: -41.6%
17,COc1ccc(N2CCN(C(=O)CNC(=O)Cn3c(C)cc4ccccc4c3=O)CC2)cc1,inactive: 24%
18,Cc1ccc(NS(=O)(=O)c2c(C)[nH]c(C)c2C(=O)N2CCCCC2)c(Cl)c1,inconclusive: 0%
19,S=C1SCN(Cc2cccnc2)CN1Cc1ccccc1,active: -94%
20,CC1CN(C(=O)COC(=O)c2ccc(C#N)cc2)CC(C)O1 (stereo not given),inconclusive: -53.5%
21,O=S(=O)(c1ccc(Cl)cc1)N1c2ccccc2Oc2nc3ccccc3nc21,inconclusive: -48.7%
22,CCOC(=O)Nc1cc2c(c(N)n1)N=C(c1ccccc1)CN2,inconclusive: -50.1%
23,Cc1cccn2c(=O)c3cc(C(N)=S)c(=N)n(CCCN4CCOCC4)c3nc12,active: -64%
24,CCOc1cc(/C=C2\SC(=O)N(c3ccc(O)cc3)C2=O)ccc1O,inconclusive: -40.3%
25,COc1ccc(N2CCN(C(=O)CN3CCN(C(c4ccccc4)c4ccccc4)CC3)CC2)cc1,inactive: 0.0547%
26,O=C(CSc1nnc(-c2ccccc2)c(-c2ccccc2)n1)NCCc1ccccc1,inactive: -15.2%
27,Cc1ncoc1C(=O)NC1CCCc2c1cnn2-c1ccc(C(C)(C)C)cc1 (stereo not given),inconclusive: -57.3%
28,Cc1cc(C(=O)OCC(=O)NC(C)c2ccccc2)c(C)o1 (stereo not given),inconclusive: -53.2%

row,Structure (SMILES),"activity change, negative = inhibition"
1,CCOC(=O)C(CC)Sc1ncnc2c1c(-c1ccccc1)cn2-c1ccc(OC)cc1 (stereo not given),inactive: -17.2%
2,O=C(c1ccc(Br)cc1)c1cc2ccc(O)cc2oc1=O,inconclusive: -45.9%
3,Cc1ccc(S(=O)(=O)Nc2ccc3cn[nH]c3c2)c(C)c1,inactive: 9.04%
4,Nc1nnc(SCC(=O)OCC(=O)NC23CC4CC(CC(C4)C2)C3)s1,inconclusive: -42.5%
5,Cc1cc(C(=O)N2CCOCC2)c(C)o1,active: -98.8%
6,Cc1ccc(NC(=S)Nc2ccc(-c3nnc4n3CCCCC4)cc2)cc1C,inconclusive: -47.3%
7,O=C(NC1CCSc2ccccc21)c1cccc([N+](=O)[O-])c1 (stereo not given),inactive: -8.2%
8,CCOc1ccc(N(C)S(=O)(=O)c2cc(-c3cc(C)no3)ccc2OC)cc1,inconclusive: -44.9%
9,Cc1cc(C)c2cc(C=O)c(Cl)nc2c1,inconclusive: -50%
10,CNC(C)C(=O)NC(C(=O)N1CCCC1C(=O)Nc1ccc2ncccc2c1)C(C)C (stereo not given),inactive: -36.6%
11,Cc1cccc(NC(=O)c2ccccc2OCC(=O)c2ccccc2)c1,inconclusive: -40%
12,O=C(COc1ccc(S(=O)(=O)N2CCCC2)cc1)N1CCN(c2ccccc2F)CC1,inconclusive: -47%
13,COc1cc(NC(=O)c2ccco2)ccc1NC(=O)c1ccccc1Cl,inconclusive: -54.7%
14,Cc1onc(-c2ccccc2)c1C(=O)Nc1ncc([N+](=O)[O-])s1,active: -95.5%
15,Cc1cc(C)n(-c2ccc(C(=O)Nc3ccc(S(=O)(=O)NCc4ccco4)cc3)cc2)n1,active: -96.5%
16,CS(=O)(=O)Nc1ccc(N2CCN(c3ccc(C(F)(F)F)cn3)CC2)nc1,inconclusive: -53%
17,Cc1ccc2oc(-c3ccc(Cl)cc3)c(O)c(=O)c2c1,active: -77.4%
18,Cc1sc2ncnc(Sc3ccccc3C(=O)Nc3ccc(Br)cc3)c2c1C,inactive: -27.2%
19,COc1ccc(C(=O)N2CCC(n3nnc4cc(F)ccc43)CC2)cc1OC,inconclusive: -46.6%
20,O=C1c2ccc3c4c(ccc(c24)C(=O)N1NC(=O)C(F)(F)F)CC3,inactive: -17.6%
21,CC(NC(=O)c1ccco1)C(c1cccs1)N1CCN(c2ccc(F)cc2)CC1 (stereo not given),inconclusive: -41.6%
22,C=CCCC1CN(Cc2ccc(OC)cc2)S(=O)(=O)c2c(cccc2N2CCCCC2)O1 (stereo not given),inconclusive: -40.4%
23,NC(=O)C1(C(N)=O)OC1c1ccc(Cl)c(Cl)c1 (stereo not given),inconclusive: -47.5%
24,COc1ccc(-c2nc(CN3CCN(c4cc(C)nc(C)c4)CC3)c(C)o2)c2ccccc12,inconclusive: -40.4%
25,CCc1nc(Nc2ccc(F)c(Cl)c2)c2c3c(sc2n1)CCCC3,inconclusive: -46.5%
26,O=C(Nc1ccc2c(c1)OCO2)O[C@@H]1C[C@H]2CCCC(=O)N3CC[C@@H](C1)[C@@H]23,inconclusive: -55.2%
27,Cc1cc(NC(=S)NC(=O)c2ccccc2)ccc1-c1cc2ccccc2oc1=O,inconclusive: -41.8%

# Looked up one by one from the list above:
row,Structure (SMILES),"activity change, negative = inhibition"
20,O=C1c2ccc3c4c(ccc(c24)C(=O)N1NC(=O)C(F)(F)F)CC3,inactive: -17.6%
19,COc1ccc(C(=O)N2CCC(n3nnc4cc(F)ccc43)CC2)cc1OC,inconclusive: -46.6%
5,Cc1cc(C(=O)N2CCOCC2)c(C)o1,active: -98.8%
7,O=C(NC1CCSc2ccccc21)c1cccc([N+](=O)[O-])c1 (stereo not given),inactive: -8.2%
